Measured values published in patent US20100280101, “METHOD OF INHIBITING CANCER CELL PROLIFERATION, PROLIFERATION INHIBITOR AND SCREENING METHOD” (University of Occupational and Environmental Health Japan, published 2010).
Protein sequences can lack the tags named with them.

Biological target: T1, ZNF143 (endogenous, PC3 cells) (Homo sapiens) (UniProt P52747)
T1 sequence (limits assumed): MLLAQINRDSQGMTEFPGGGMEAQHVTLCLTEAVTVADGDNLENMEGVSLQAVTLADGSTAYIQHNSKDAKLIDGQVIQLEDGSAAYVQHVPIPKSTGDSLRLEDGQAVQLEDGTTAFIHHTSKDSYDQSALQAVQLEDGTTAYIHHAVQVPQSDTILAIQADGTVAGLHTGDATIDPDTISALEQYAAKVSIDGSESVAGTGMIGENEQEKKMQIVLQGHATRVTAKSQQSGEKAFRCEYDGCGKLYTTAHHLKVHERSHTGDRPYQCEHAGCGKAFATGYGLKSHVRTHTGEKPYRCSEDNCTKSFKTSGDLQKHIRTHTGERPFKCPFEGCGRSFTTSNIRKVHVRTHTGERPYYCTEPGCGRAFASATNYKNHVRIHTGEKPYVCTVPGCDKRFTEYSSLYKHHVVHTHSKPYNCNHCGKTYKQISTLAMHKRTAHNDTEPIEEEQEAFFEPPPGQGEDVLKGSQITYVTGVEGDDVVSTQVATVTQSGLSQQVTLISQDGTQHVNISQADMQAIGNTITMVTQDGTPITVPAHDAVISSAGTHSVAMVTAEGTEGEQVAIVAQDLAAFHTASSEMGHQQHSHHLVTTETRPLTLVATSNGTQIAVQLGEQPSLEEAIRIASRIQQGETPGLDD
Assay: activity in cells
Conditions: luciferase reporter in PC3 reduced by ZNF143 siRNA, not by control siRNA; protein in cells; variant of CDC6 promoter site; only the site is given

“ACTACGCCTCCCAGCGTGCTTTGCGACTACGCCTCCCAGCGTGCTTTGCG (double strand) [CDC6 site x2 tandem in pGL3]” was tested, and the “activity on this sequence” value was “active”.
